Test results published in ChEMBL document CHEMBL5674883, “The Heterochromatin Landscape in Migrating Cells and the Importance of H3K27me3 for Associated Transcriptome Alterations” (Cells, 2018).
This continues a long series; more values of the same kind are listed elsewhere.

Chains of the proteins cited; added tags and fusions are not shown.
UniProt Q61188, whole entry: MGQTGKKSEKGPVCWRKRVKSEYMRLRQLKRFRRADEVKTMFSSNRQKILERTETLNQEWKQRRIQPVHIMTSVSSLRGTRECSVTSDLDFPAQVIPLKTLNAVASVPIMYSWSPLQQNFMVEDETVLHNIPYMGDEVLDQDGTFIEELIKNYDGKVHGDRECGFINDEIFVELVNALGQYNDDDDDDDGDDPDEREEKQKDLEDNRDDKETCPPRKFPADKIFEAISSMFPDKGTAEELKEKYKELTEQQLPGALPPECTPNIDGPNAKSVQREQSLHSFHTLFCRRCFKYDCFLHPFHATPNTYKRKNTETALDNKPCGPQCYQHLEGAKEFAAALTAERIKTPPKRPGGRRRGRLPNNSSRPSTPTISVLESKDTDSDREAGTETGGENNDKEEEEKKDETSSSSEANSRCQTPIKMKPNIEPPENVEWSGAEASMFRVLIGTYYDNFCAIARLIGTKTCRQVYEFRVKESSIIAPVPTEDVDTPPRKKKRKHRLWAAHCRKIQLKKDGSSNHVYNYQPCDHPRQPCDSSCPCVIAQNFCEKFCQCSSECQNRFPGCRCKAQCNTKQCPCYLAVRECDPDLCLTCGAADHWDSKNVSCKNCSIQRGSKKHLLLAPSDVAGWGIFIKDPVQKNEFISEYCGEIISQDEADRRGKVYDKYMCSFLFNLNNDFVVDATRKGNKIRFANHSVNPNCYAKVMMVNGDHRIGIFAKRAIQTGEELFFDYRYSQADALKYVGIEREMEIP

Experiments:
Type in all cases: cell-based
[1] = target: Histone-lysine N-methyltransferase EZH2 (Mus musculus) (UniProt Q61188); assay: Inhibition of EZH2 in mouse B16-F1 migrating cells assessed as fold change in H3K27me3-buffered regulated Acbd5-mRNA expression at 3 uM measured by ChIP-seq analysis relative to control cells
[2] = target: Histone-lysine N-methyltransferase EZH2 (Mus musculus) (UniProt Q61188); assay: Inhibition of EZH2 in mouse B16-F1 migrating cells assessed as fold change in H3K27me3-independent regulated Irak2-mRNA expression at 3 uM measured by ChIP-seq analysis relative to control cells
[3] = target: Histone-lysine N-methyltransferase EZH2 (Mus musculus) (UniProt Q61188); assay: Inhibition of EZH2 in mouse B16-F1 migrating cells assessed as fold change in H3K27me3-buffered regulated Ssb-mRNA expression at 3 uM measured by ChIP-seq analysis relative to control cells
[4] = target: Histone-lysine N-methyltransferase EZH2 (Mus musculus) (UniProt Q61188); assay: Inhibition of EZH2 in mouse B16-F1 migrating cells assessed as fold change in H3K27me3-buffered regulated Supt20-mRNA expression at 3 uM measured by ChIP-seq analysis relative to control cells
[5] = target: Histone-lysine N-methyltransferase EZH2 (Mus musculus) (UniProt Q61188); assay: Inhibition of EZH2 in mouse B16-F1 migrating cells assessed as fold change in H3K27me3-buffered regulated Gm16353-mRNA expression at 3 uM measured by ChIP-seq analysis relative to control cells
[6] = target: Histone-lysine N-methyltransferase EZH2 (Mus musculus) (UniProt Q61188); assay: Inhibition of EZH2 in mouse B16-F1 migrating cells assessed as fold change in H3K27me3-buffered regulated Rapgef4-mRNA expression at 3 uM measured by ChIP-seq analysis relative to control cells
[7] = target: Histone-lysine N-methyltransferase EZH2 (Mus musculus) (UniProt Q61188); assay: Inhibition of EZH2 in mouse B16-F1 migrating cells assessed as fold change in H3K27me3-dependent regulated Rassf7-mRNA expression at 3 uM measured by ChIP-seq analysis relative to control cells
[8] = target: Histone-lysine N-methyltransferase EZH2 (Mus musculus) (UniProt Q61188); assay: Inhibition of EZH2 in mouse B16-F1 migrating cells assessed as fold change in H3K27me3-independent regulated Ndrg2-mRNA expression at 3 uM measured by ChIP-seq analysis relative to control cells
[9] = target: Histone-lysine N-methyltransferase EZH2 (Mus musculus) (UniProt Q61188); assay: Inhibition of EZH2 in mouse B16-F1 migrating cells assessed as fold change in H3K27me3-buffered regulated Aspm-mRNA expression at 3 uM measured by ChIP-seq analysis relative to control cells
[10] = target: Histone-lysine N-methyltransferase EZH2 (Mus musculus) (UniProt Q61188); assay: Inhibition of EZH2 in mouse B16-F1 migrating cells assessed as fold change in H3K27me3-buffered regulated Tubb2a-mRNA expression at 3 uM measured by ChIP-seq analysis relative to control cells
[11] = target: Histone-lysine N-methyltransferase EZH2 (Mus musculus) (UniProt Q61188); assay: Inhibition of EZH2 in mouse B16-F1 migrating cells assessed as fold change in H3K27me3-buffered regulated Six4-mRNA expression at 3 uM measured by ChIP-seq analysis relative to control cells
[12] = target: Histone-lysine N-methyltransferase EZH2 (Mus musculus) (UniProt Q61188); assay: Inhibition of EZH2 in mouse B16-F1 migrating cells assessed as fold change in H3K27me3-buffered regulated Upf3b-mRNA expression at 3 uM measured by ChIP-seq analysis relative to control cells
[13] = target: Histone-lysine N-methyltransferase EZH2 (Mus musculus) (UniProt Q61188); assay: Inhibition of EZH2 in mouse B16-F1 migrating cells assessed as fold change in H3K27me3-dependent regulated Ier5l-mRNA expression at 3 uM measured by ChIP-seq analysis relative to control cells
[14] = target: T1, RNA polymerase II (Mus musculus) (UniProt P08775+Q8CFI7+P97760+A0A3Q4L2S8+Q80UW8+P61219+P62488+Q923G2+P60898+O08740+Q63871+P62876); assay: Inhibition of RNA polymerase II in mouse B16-F1 migrating cells assessed as fold change in Anxa2-RNA stability at 0.1 mM measured by ChIP-seq analysis relative to control cells
[15] = target: T1, RNA polymerase II (Mus musculus); assay: Inhibition of RNA polymerase II in mouse B16-F1 migrating cells assessed as fold change in Clock-RNA stability at 0.1 mM measured by ChIP-seq analysis relative to control cells
[16] = target: T1, RNA polymerase II (Mus musculus); assay: Inhibition of RNA polymerase II in mouse B16-F1 migrating cells assessed as fold change in Actr6-RNA stability at 0.1 mM measured by ChIP-seq analysis relative to control cells
[17] = target: T1, RNA polymerase II (Mus musculus); assay: Inhibition of RNA polymerase II in mouse B16-F1 migrating cells assessed as fold change in Kdm1b-RNA stability at 0.1 mM measured by ChIP-seq analysis relative to control cells
[18] = target: T1, RNA polymerase II (Mus musculus); assay: Inhibition of RNA polymerase II in mouse B16-F1 migrating cells assessed as fold change in Eno1-RNA stability at 0.1 mM measured by ChIP-seq analysis relative to control cells
[19] = target: T1, RNA polymerase II (Mus musculus); assay: Inhibition of RNA polymerase II in mouse B16-F1 migrating cells assessed as fold change in Lrrfip1-RNA stability at 0.1 mM measured by ChIP-seq analysis relative to control cells
[20] = target: T1, RNA polymerase II (Mus musculus); assay: Inhibition of RNA polymerase II in mouse B16-F1 migrating cells assessed as fold change in Ccni-RNA stability at 0.1 mM measured by ChIP-seq analysis relative to control cells
[21] = target: T1, RNA polymerase II (Mus musculus); assay: Inhibition of RNA polymerase II in mouse B16-F1 migrating cells assessed as fold change in Ctxn1-RNA stability at 0.1 mM measured by ChIP-seq analysis relative to control cells
[22] = target: T1, RNA polymerase II (Mus musculus); assay: Inhibition of RNA polymerase II in mouse B16-F1 migrating cells assessed as fold change in Phf3-RNA stability at 0.1 mM measured by ChIP-seq analysis relative to control cells
[23] = target: T1, RNA polymerase II (Mus musculus); assay: Inhibition of RNA polymerase II in mouse B16-F1 migrating cells assessed as fold change in Adk-RNA stability at 0.1 mM measured by ChIP-seq analysis relative to control cells
[24] = target: T1, RNA polymerase II (Mus musculus); assay: Inhibition of RNA polymerase II in mouse B16-F1 migrating cells assessed as fold change in Nfya-RNA stability at 0.1 mM measured by ChIP-seq analysis relative to control cells
[25] = target: T1, RNA polymerase II (Mus musculus); assay: Inhibition of RNA polymerase II in mouse B16-F1 migrating cells assessed as fold change in 9330182L06Rik-RNA stability at 0.1 mM measured by ChIP-seq analysis relative to control cells
[26] = target: T1, RNA polymerase II (Mus musculus); assay: Inhibition of RNA polymerase II in mouse B16-F1 migrating cells assessed as fold change in Smc2-RNA stability at 0.1 mM measured by ChIP-seq analysis relative to control cells
[27] = target: T1, RNA polymerase II (Mus musculus); assay: Inhibition of RNA polymerase II in mouse B16-F1 migrating cells assessed as fold change in Psmc6-RNA stability at 0.1 mM measured by ChIP-seq analysis relative to control cells
[28] = target: T1, RNA polymerase II (Mus musculus); assay: Inhibition of RNA polymerase II in mouse B16-F1 migrating cells assessed as fold change in Rpl9-RNA stability at 0.1 mM measured by ChIP-seq analysis relative to control cells
[29] = target: T1, RNA polymerase II (Mus musculus); assay: Inhibition of RNA polymerase II in mouse B16-F1 migrating cells assessed as fold change in Gpr137-RNA stability at 0.1 mM measured by ChIP-seq analysis relative to control cells
[30] = target: T1, RNA polymerase II (Mus musculus); assay: Inhibition of RNA polymerase II in mouse B16-F1 migrating cells assessed as fold change in Pdcd10-RNA stability at 0.1 mM measured by ChIP-seq analysis relative to control cells

CCCc1cc(C)[nH]c(=O)c1CNC(=O)c1cc(-c2ccnc(N3CCN(C)CC3)c2)cc2c1cnn2C(C)C
log2FC [1]: -0.38
log2FC [2]: 0.42
log2FC [3]: -0.38
log2FC [4]: -0.4
log2FC [5]: 0.88
log2FC [6]: -0.46
log2FC [7]: -0.48
log2FC [8]: 0.73
log2FC [9]: -0.42
log2FC [10]: 0.41
log2FC [11]: -0.74
log2FC [12]: -0.4
log2FC [13]: -0.06

OC[C@H]1O[C@@H](n2cnc3cc(Cl)c(Cl)cc32)[C@H](O)[C@@H]1O
log2FC [14]: 0.57
log2FC [15]: -0.64
log2FC [16]: -0.69
log2FC [17]: -0.58
log2FC [18]: 0.47
log2FC [19]: -0.39
log2FC [20]: 0.56
log2FC [21]: 0.72
log2FC [22]: -0.54
log2FC [23]: -0.39
log2FC [24]: -0.54
log2FC [25]: -0.68
log2FC [26]: -1.11
log2FC [27]: -0.61
log2FC [28]: 0.45
log2FC [29]: 0.58
log2FC [30]: -0.64
